Data source: PubChem BioAssay AID1224830 (NIAID, 2016)

Screen: 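Host factors that control LPS-induced TNF expression in human macrophages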 (primary screen)
System: human THP-1 monocytic leukaemia cells, TNF dual-luciferase reporter clone, PMA-differentiated to macrophage-like cells
Reagent: siRNA pool against human genes, 50 nM
Timing: LPS for 4 h, given about 3 days after siRNA transfection
Conditions: bacterial LPS (TLR4 ligand), 10 ng/ml
Read-out: 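Ratio of firefly to renilla light, scaled to the plate median and expressed as a robust z-score per replicate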
Direction: TNF reporter robust z-score: higher = stronger TNF reporter response to LPS
Hit rule: 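a well is active when its z-score exceeds 2.8 or falls below -1.5; control wells carry no call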
The whole screen tested about 18,000 reagents; below is an unselected part. About 2,900 of them (16%) count as active. 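Calls are made per well; low scores hint the gene aids the LPS response, high scores that it dampens it.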 Repeated entries: four replicate wells of each siRNA pool.

Gene | TNF reporter robust z-score | outcome
CUX1 (cut like homeobox 1) | -0.67 | inactive
CUX1 (cut like homeobox 1) | -1.32 | inactive
CUX1 (cut like homeobox 1) | -0.42 | inactive
CUX1 (cut like homeobox 1) | -1.08 | inactive
ZNF28 (zinc finger protein 28) | 0.83 | inactive
ZNF28 (zinc finger protein 28) | 1.03 | inactive
ZNF28 (zinc finger protein 28) | -0.18 | inactive
ZNF28 (zinc finger protein 28) | 0.3 | inactive
ATF1 (activating transcription factor 1) | 2.67 | inactive
ATF1 (activating transcription factor 1) | 2.72 | inactive
ATF1 (activating transcription factor 1) | 2.42 | inactive
ATF1 (activating transcription factor 1) | 3.4 | active
SPATA31A3 (SPATA31 subfamily A member 3) | -0.31 | inactive
SPATA31A3 (SPATA31 subfamily A member 3) | 1.58 | inactive
SPATA31A3 (SPATA31 subfamily A member 3) | 0.46 | inactive
SPATA31A3 (SPATA31 subfamily A member 3) | 1.27 | inactive
SPATA31A7 (SPATA31 subfamily A member 7) | -0.28 | inactive
SPATA31A7 (SPATA31 subfamily A member 7) | -0.52 | inactive
SPATA31A7 (SPATA31 subfamily A member 7) | 0.45 | inactive
SPATA31A7 (SPATA31 subfamily A member 7) | 1.41 | inactive
AGRN (agrin) | -1.33 | inactive
AGRN (agrin) | -1.29 | inactive
AGRN (agrin) | -0.9 | inactive
MAP3K3 (mitogen-activated protein kinase kinase kinase 3) | -0.68 | inactive
MAP3K3 (mitogen-activated protein kinase kinase kinase 3) | -1.55 | active
MAP3K3 (mitogen-activated protein kinase kinase kinase 3) | -1.07 | inactive
MAP3K3 (mitogen-activated protein kinase kinase kinase 3) | -1.19 | inactive
CHAT (choline O-acetyltransferase) | -0.73 | inactive
CHAT (choline O-acetyltransferase) | 0.65 | inactive
CHAT (choline O-acetyltransferase) | 3.04 | active
CHAT (choline O-acetyltransferase) | 1.67 | inactive
AAMP (angio associated migratory cell protein) | 0.72 | inactive
AAMP (angio associated migratory cell protein) | 1.44 | inactive
AAMP (angio associated migratory cell protein) | 1.15 | inactive
AAMP (angio associated migratory cell protein) | 1 | inactive
LILRA6 (leukocyte immunoglobulin like receptor A6) | 1.84 | inactive
LILRA6 (leukocyte immunoglobulin like receptor A6) | 0.08 | inactive
LILRA6 (leukocyte immunoglobulin like receptor A6) | -0.74 | inactive
LILRA6 (leukocyte immunoglobulin like receptor A6) | 0.87 | inactive
NFKBIZ (NFKB inhibitor zeta) | -1.29 | inactive
NFKBIZ (NFKB inhibitor zeta) | -0.63 | inactive
NFKBIZ (NFKB inhibitor zeta) | -0.13 | inactive
NFKBIZ (NFKB inhibitor zeta) | -0.27 | inactive
FNDC3B (fibronectin type III domain containing 3B) | 0.77 | inactive
FNDC3B (fibronectin type III domain containing 3B) | 0.33 | inactive
FNDC3B (fibronectin type III domain containing 3B) | 0.14 | inactive
FNDC3B (fibronectin type III domain containing 3B) | 0.28 | inactive
NKAP (NFKB activating protein) | -0.72 | inactive
NKAP (NFKB activating protein) | -0.82 | inactive
NKAP (NFKB activating protein) | -0.35 | inactive
TEKT4 (tektin 4) | 1.22 | inactive
TEKT4 (tektin 4) | -0.26 | inactive
TEKT4 (tektin 4) | -0.68 | inactive
TEKT4 (tektin 4) | -0.35 | inactive
GAREM1 (GRB2 associated regulator of MAPK1 subtype 1) | 0.95 | inactive
GAREM1 (GRB2 associated regulator of MAPK1 subtype 1) | 1.47 | inactive
GAREM1 (GRB2 associated regulator of MAPK1 subtype 1) | 0.47 | inactive
GAREM1 (GRB2 associated regulator of MAPK1 subtype 1) | 0.04 | inactive
NCAPH (non-SMC condensin I complex subunit H) | -0.5 | inactive
NCAPH (non-SMC condensin I complex subunit H) | -0.45 | inactive
NCAPH (non-SMC condensin I complex subunit H) | -1.06 | inactive
NCAPH (non-SMC condensin I complex subunit H) | 0.66 | inactive
FPR2 (formyl peptide receptor 2) | -0.27 | inactive
FPR2 (formyl peptide receptor 2) | 0.22 | inactive
FPR2 (formyl peptide receptor 2) | -0.13 | inactive
FPR2 (formyl peptide receptor 2) | -0.11 | inactive
SLC22A10 | -0.09 | inactive
SLC22A10 | 1.53 | inactive
SLC22A10 | 0.88 | inactive
SLC22A10 | 2.8 | active
TUBA3D (tubulin alpha 3d) | 7.38 | active
TUBA3D (tubulin alpha 3d) | 1.37 | inactive
TUBA3D (tubulin alpha 3d) | -0.06 | inactive
TUBA3D (tubulin alpha 3d) | 1.04 | inactive
GNB5 (G protein subunit beta 5) | 0.84 | inactive
GNB5 (G protein subunit beta 5) | 0.15 | inactive
GNB5 (G protein subunit beta 5) | 1.67 | inactive
GNB5 (G protein subunit beta 5) | 2.41 | inactive
FIGNL1 (fidgetin like 1) | -0.03 | inactive
FIGNL1 (fidgetin like 1) | -0.8 | inactive
FIGNL1 (fidgetin like 1) | -1.39 | inactive
FIGNL1 (fidgetin like 1) | -0.43 | inactive
MPI (mannose phosphate isomerase) | -0.02 | inactive
MPI (mannose phosphate isomerase) | 0.24 | inactive
MPI (mannose phosphate isomerase) | -0.54 | inactive
MPI (mannose phosphate isomerase) | -0.17 | inactive
RSAD1 (radical S-adenosyl methionine domain containing 1) | 1.71 | inactive
RSAD1 (radical S-adenosyl methionine domain containing 1) | 2.78 | inactive
RSAD1 (radical S-adenosyl methionine domain containing 1) | 0.98 | inactive
RSAD1 (radical S-adenosyl methionine domain containing 1) | 1.87 | inactive
CADM1 (cell adhesion molecule 1) | -0.94 | inactive
CADM1 (cell adhesion molecule 1) | -0.75 | inactive
CADM1 (cell adhesion molecule 1) | -0.87 | inactive
CADM1 (cell adhesion molecule 1) | -0.89 | inactive
ZNF581 (zinc finger protein 581) | -0.19 | inactive
ZNF581 (zinc finger protein 581) | -1.14 | inactive
ZNF581 (zinc finger protein 581) | -0.76 | inactive
ZNF581 (zinc finger protein 581) | 0.72 | inactive
PLPP6 (phospholipid phosphatase 6) | 0.07 | inactive
PLPP6 (phospholipid phosphatase 6) | 0.72 | inactive
PLPP6 (phospholipid phosphatase 6) | 0.23 | inactive
PLPP6 (phospholipid phosphatase 6) | -0.27 | inactive
RMND5A (required for meiotic nuclear division 5 homolog A) | -0.56 | inactive
RMND5A (required for meiotic nuclear division 5 homolog A) | -0.36 | inactive
RMND5A (required for meiotic nuclear division 5 homolog A) | -1.18 | inactive
RMND5A (required for meiotic nuclear division 5 homolog A) | -0.37 | inactive
DEFB128 (defensin beta 128) | 0.02 | inactive
DEFB128 (defensin beta 128) | -0.9 | inactive
DEFB128 (defensin beta 128) | 0.05 | inactive
DEFB128 (defensin beta 128) | 0.72 | inactive
XYLB (xylulokinase) | -0.96 | inactive
XYLB (xylulokinase) | -0.6 | inactive
XYLB (xylulokinase) | 0.36 | inactive
XYLB (xylulokinase) | -0.84 | inactive
PLK3 (polo like kinase 3) | -0.79 | inactive
PLK3 (polo like kinase 3) | -0.29 | inactive
PLK3 (polo like kinase 3) | 2.06 | inactive
PLK3 (polo like kinase 3) | -0.58 | inactive
NR2F2 (nuclear receptor subfamily 2 group F member 2) | 12.1 | active
NR2F2 (nuclear receptor subfamily 2 group F member 2) | 0.97 | inactive
NR2F2 (nuclear receptor subfamily 2 group F member 2) | -0.52 | inactive
NR2F2 (nuclear receptor subfamily 2 group F member 2) | 0.68 | inactive
LGR5 (leucine rich repeat containing G protein-coupled receptor 5) | -0.46 | inactive
LGR5 (leucine rich repeat containing G protein-coupled receptor 5) | -0.67 | inactive
LGR5 (leucine rich repeat containing G protein-coupled receptor 5) | -0.42 | inactive
LGR5 (leucine rich repeat containing G protein-coupled receptor 5) | -0.45 | inactive
FBLN1 (fibulin 1) | -0.53 | inactive
FBLN1 (fibulin 1) | -0.08 | inactive
FBLN1 (fibulin 1) | 1.29 | inactive
FBLN1 (fibulin 1) | 0.97 | inactive
POU5F1 (POU class 5 homeobox 1) | 1.94 | inactive
POU5F1 (POU class 5 homeobox 1) | -1.14 | inactive
POU5F1 (POU class 5 homeobox 1) | 0 | inactive
POU5F1 (POU class 5 homeobox 1) | 0.55 | inactive
HECTD1 (HECT domain E3 ubiquitin protein ligase 1) | 2.49 | inactive
HECTD1 (HECT domain E3 ubiquitin protein ligase 1) | 1.64 | inactive
HECTD1 (HECT domain E3 ubiquitin protein ligase 1) | 0.12 | inactive
HECTD1 (HECT domain E3 ubiquitin protein ligase 1) | 1.62 | inactive
CEP55 (centrosomal protein 55) | -0.01 | inactive
CEP55 (centrosomal protein 55) | 1.61 | inactive
CEP55 (centrosomal protein 55) | 1.19 | inactive
CEP55 (centrosomal protein 55) | 2.6 | inactive

Ordered by “TNF reporter robust z-score” (descending): some entries from above.
Gene | TNF reporter robust z-score | outcome
TUBA3D (tubulin alpha 3d) | 7.38 | active
SLC22A10 | 2.8 | active
GNB5 (G protein subunit beta 5) | 2.41 | inactive
GNB5 (G protein subunit beta 5) | 1.67 | inactive
SLC22A10 | 1.53 | inactive
TUBA3D (tubulin alpha 3d) | 1.37 | inactive
TUBA3D (tubulin alpha 3d) | 1.04 | inactive
SLC22A10 | 0.88 | inactive
GNB5 (G protein subunit beta 5) | 0.84 | inactive
NCAPH (non-SMC condensin I complex subunit H) | 0.66 | inactive
FPR2 (formyl peptide receptor 2) | 0.22 | inactive
GNB5 (G protein subunit beta 5) | 0.15 | inactive
FIGNL1 (fidgetin like 1) | -0.03 | inactive
TUBA3D (tubulin alpha 3d) | -0.06 | inactive
SLC22A10 | -0.09 | inactive
FPR2 (formyl peptide receptor 2) | -0.11 | inactive
FPR2 (formyl peptide receptor 2) | -0.13 | inactive
FPR2 (formyl peptide receptor 2) | -0.27 | inactive
FIGNL1 (fidgetin like 1) | -0.8 | inactive
NCAPH (non-SMC condensin I complex subunit H) | -1.06 | inactive
FIGNL1 (fidgetin like 1) | -1.39 | inactive
